# Results taken from PMC7468108 (Communications Biology, 2020).
# The chains behind the UniProt entries cited, without tags or fusion partners. Residues count along the entry.
# UniProt P05067, 672-713 limits assumed: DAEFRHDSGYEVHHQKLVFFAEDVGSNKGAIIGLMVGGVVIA
# The source gives many values for each of these; only a part stands here.
# Molecular target: T1, Aβ42 (Homo sapiens, UniProt P05067)
# T1 construct: purchased rPeptide (USA)
# Assay: CD spectroscopy of Aβ42 aggregated with the tested molecules
# Conditions: Aβ42 (10 µM) : molecule 1:5
# Method: The blank was subtracted from the acquired CD spectra. For the CD study in the presence of the tryptophan-galacosylamine molecules, the spectra of hybrid molecules were also recorded separately and subtracted from the respective sample spectra. The normalized data were plotted using Origin pro 2015 software.
smiles,measurement,setting,value
NC(Cc1c[nH]c2ccccc12)C(=O)NC(Cc1c[nH]c2ccccc12)C(=O)O (stereo not drawn) [WW],Normalized CD spectra,Wave length 190.0,-64297.4
same,Normalized CD spectra,Wave length 190.5,-48196.1
same,Normalized CD spectra,Wave length 191.0,-33986.0
same,Normalized CD spectra,Wave length 191.5,-21666.9
same,Normalized CD spectra,Wave length 192.0,-11238.9
same,Normalized CD spectra,Wave length 192.5,-2702.0
same,Normalized CD spectra,Wave length 193.0,3943.8
same,Normalized CD spectra,Wave length 193.5,8698.6
same,Normalized CD spectra,Wave length 194.0,11562.2
same,Normalized CD spectra,Wave length 194.5,12534.7
same,Normalized CD spectra,Wave length 195.0,11616.1
same,Normalized CD spectra,Wave length 195.5,30824.9
same,Normalized CD spectra,Wave length 196.0,13877.2
same,Normalized CD spectra,Wave length 196.5,1645.7
same,Normalized CD spectra,Wave length 197.0,-25087.7
same,Normalized CD spectra,Wave length 197.5,-25187.0
same,Normalized CD spectra,Wave length 198.0,-50636.9
same,Normalized CD spectra,Wave length 198.5,-63708.3
same,Normalized CD spectra,Wave length 199.0,-77024.6
same,Normalized CD spectra,Wave length 199.5,-89375.7
same,Normalized CD spectra,Wave length 200.0,-105751.5
same,Normalized CD spectra,Wave length 200.5,-123912.8
same,Normalized CD spectra,Wave length 201.0,-139965.2
same,Normalized CD spectra,Wave length 201.5,-155380.1
same,Normalized CD spectra,Wave length 202.0,-174065.1
same,Normalized CD spectra,Wave length 202.5,-190525.8
same,Normalized CD spectra,Wave length 203.0,-209796.0
same,Normalized CD spectra,Wave length 203.5,-227090.2
same,Normalized CD spectra,Wave length 204.0,-243672.0
same,Normalized CD spectra,Wave length 204.5,-261250.5
same,Normalized CD spectra,Wave length 205.0,-283648.5
same,Normalized CD spectra,Wave length 205.5,-299550.3
same,Normalized CD spectra,Wave length 206.0,-313909.9
same,Normalized CD spectra,Wave length 206.5,-330370.2
same,Normalized CD spectra,Wave length 207.0,-352368.3
same,Normalized CD spectra,Wave length 207.5,-366472.9
same,Normalized CD spectra,Wave length 208.0,-384318.3
same,Normalized CD spectra,Wave length 208.5,-400225.0
same,Normalized CD spectra,Wave length 209.0,-414097.1
same,Normalized CD spectra,Wave length 209.5,-431143.1
same,Normalized CD spectra,Wave length 210.0,-444840.8
same,Normalized CD spectra,Wave length 210.5,-452976.0
same,Normalized CD spectra,Wave length 211.0,-462299.6
same,Normalized CD spectra,Wave length 211.5,-474209.7
same,Normalized CD spectra,Wave length 212.0,-483100.4
same,Normalized CD spectra,Wave length 212.5,-491764.7
same,Normalized CD spectra,Wave length 213.0,-496873.3
same,Normalized CD spectra,Wave length 213.5,-500059.5
same,Normalized CD spectra,Wave length 214.0,-507486.5
same,Normalized CD spectra,Wave length 214.5,-513352.0
same,Normalized CD spectra,Wave length 215.0,-517976.0
same,Normalized CD spectra,Wave length 215.5,-519706.0
same,Normalized CD spectra,Wave length 216.0,-515831.1
same,Normalized CD spectra,Wave length 216.5,-520834.7
same,Normalized CD spectra,Wave length 217.0,-526466.2
same,Normalized CD spectra,Wave length 217.5,-527163.0
same,Normalized CD spectra,Wave length 218.0,-530743.5
same,Normalized CD spectra,Wave length 218.5,-530612.1
same,Normalized CD spectra,Wave length 219.0,-531399.2
same,Normalized CD spectra,Wave length 219.5,-531887.6
same,Normalized CD spectra,Wave length 220.0,-525174.6
same,Normalized CD spectra,Wave length 220.5,-519778.8
same,Normalized CD spectra,Wave length 221.0,-516073.5
same,Normalized CD spectra,Wave length 221.5,-510544.1
same,Normalized CD spectra,Wave length 222.0,-503880.7
same,Normalized CD spectra,Wave length 222.5,-492277.0
same,Normalized CD spectra,Wave length 223.0,-478520.0
same,Normalized CD spectra,Wave length 223.5,-469699.4
same,Normalized CD spectra,Wave length 224.0,-456039.8
same,Normalized CD spectra,Wave length 224.5,-442374.1
same,Normalized CD spectra,Wave length 225.0,-431956.3
same,Normalized CD spectra,Wave length 225.5,-420538.9
same,Normalized CD spectra,Wave length 226.0,-406416.4
same,Normalized CD spectra,Wave length 226.5,-402486.4
same,Normalized CD spectra,Wave length 227.0,-390234.2
same,Normalized CD spectra,Wave length 227.5,-375736.8
same,Normalized CD spectra,Wave length 228.0,-364981.6
same,Normalized CD spectra,Wave length 228.5,-349749.5
same,Normalized CD spectra,Wave length 229.0,-335216.5
same,Normalized CD spectra,Wave length 229.5,-321156.5
same,Normalized CD spectra,Wave length 230.0,-303469.3
same,Normalized CD spectra,Wave length 230.5,-292156.5
same,Normalized CD spectra,Wave length 231.0,-278212.5
same,Normalized CD spectra,Wave length 231.5,-265555.2
same,Normalized CD spectra,Wave length 232.0,-251517.9
same,Normalized CD spectra,Wave length 232.5,-234503.9
same,Normalized CD spectra,Wave length 233.0,-219459.4
same,Normalized CD spectra,Wave length 233.5,-207021.0
same,Normalized CD spectra,Wave length 234.0,-194184.2
same,Normalized CD spectra,Wave length 234.5,-182951.0
same,Normalized CD spectra,Wave length 235.0,-174445.0
same,Normalized CD spectra,Wave length 235.5,-168793.7
same,Normalized CD spectra,Wave length 236.0,-163003.2
same,Normalized CD spectra,Wave length 236.5,-157071.1
same,Normalized CD spectra,Wave length 237.0,-149970.6
same,Normalized CD spectra,Wave length 237.5,-145745.9
same,Normalized CD spectra,Wave length 238.0,-139959.7
same,Normalized CD spectra,Wave length 238.5,-132832.8
same,Normalized CD spectra,Wave length 239.0,-124788.8
same,Normalized CD spectra,Wave length 239.5,-116693.6
same,Normalized CD spectra,Wave length 240.0,-110389.7
same,Normalized CD spectra,Wave length 240.5,-108562.8
same,Normalized CD spectra,Wave length 241.0,-100105.9
same,Normalized CD spectra,Wave length 241.5,-96239.6
same,Normalized CD spectra,Wave length 242.0,-86950.7
same,Normalized CD spectra,Wave length 242.5,-82350.1
same,Normalized CD spectra,Wave length 243.0,-78251.8
same,Normalized CD spectra,Wave length 243.5,-74078.3
same,Normalized CD spectra,Wave length 244.0,-70011.9
same,Normalized CD spectra,Wave length 244.5,-66567.4
same,Normalized CD spectra,Wave length 245.0,-65681.1
same,Normalized CD spectra,Wave length 245.5,-66045.3
same,Normalized CD spectra,Wave length 246.0,-64181.4
same,Normalized CD spectra,Wave length 246.5,-63897.4
same,Normalized CD spectra,Wave length 247.0,-66271.9
same,Normalized CD spectra,Wave length 247.5,-66923.6
same,Normalized CD spectra,Wave length 248.0,-65794.6
same,Normalized CD spectra,Wave length 248.5,-65799.5
same,Normalized CD spectra,Wave length 249.0,-65544.8
same,Normalized CD spectra,Wave length 249.5,-65561.8
same,Normalized CD spectra,Wave length 250.0,-66156.0
same,Normalized CD spectra,Wave length 250.5,-66081.9
same,Normalized CD spectra,Wave length 251.0,-62984.6
same,Normalized CD spectra,Wave length 251.5,-62588.4
same,Normalized CD spectra,Wave length 252.0,-59304.7
same,Normalized CD spectra,Wave length 252.5,-60158.9
same,Normalized CD spectra,Wave length 253.0,-60540.3
same,Normalized CD spectra,Wave length 253.5,-59144.3
same,Normalized CD spectra,Wave length 254.0,-57495.8
same,Normalized CD spectra,Wave length 254.5,-57794.3
same,Normalized CD spectra,Wave length 255.0,-56709.1
same,Normalized CD spectra,Wave length 255.5,-55609.7
same,Normalized CD spectra,Wave length 256.0,-54583.8
same,Normalized CD spectra,Wave length 256.5,-53631.4
same,Normalized CD spectra,Wave length 257.0,-52752.4
same,Normalized CD spectra,Wave length 257.5,-51946.8
same,Normalized CD spectra,Wave length 258.0,-51214.7
same,Normalized CD spectra,Wave length 258.5,-50556.0
same,Normalized CD spectra,Wave length 259.0,-49970.7
same,Normalized CD spectra,Wave length 259.5,-49458.9
same,Normalized CD spectra,Wave length 260.0,-49020.6
